Data published in article doi:10.1101/2020.04.19.044891.
These are yes or no findings as the source states them, for the method shown. Binding seen in cells or lysates may run through a third protein.

Protein sequences, listed by entry. Tags and fused reporters are not part of them.
UniProt O43707: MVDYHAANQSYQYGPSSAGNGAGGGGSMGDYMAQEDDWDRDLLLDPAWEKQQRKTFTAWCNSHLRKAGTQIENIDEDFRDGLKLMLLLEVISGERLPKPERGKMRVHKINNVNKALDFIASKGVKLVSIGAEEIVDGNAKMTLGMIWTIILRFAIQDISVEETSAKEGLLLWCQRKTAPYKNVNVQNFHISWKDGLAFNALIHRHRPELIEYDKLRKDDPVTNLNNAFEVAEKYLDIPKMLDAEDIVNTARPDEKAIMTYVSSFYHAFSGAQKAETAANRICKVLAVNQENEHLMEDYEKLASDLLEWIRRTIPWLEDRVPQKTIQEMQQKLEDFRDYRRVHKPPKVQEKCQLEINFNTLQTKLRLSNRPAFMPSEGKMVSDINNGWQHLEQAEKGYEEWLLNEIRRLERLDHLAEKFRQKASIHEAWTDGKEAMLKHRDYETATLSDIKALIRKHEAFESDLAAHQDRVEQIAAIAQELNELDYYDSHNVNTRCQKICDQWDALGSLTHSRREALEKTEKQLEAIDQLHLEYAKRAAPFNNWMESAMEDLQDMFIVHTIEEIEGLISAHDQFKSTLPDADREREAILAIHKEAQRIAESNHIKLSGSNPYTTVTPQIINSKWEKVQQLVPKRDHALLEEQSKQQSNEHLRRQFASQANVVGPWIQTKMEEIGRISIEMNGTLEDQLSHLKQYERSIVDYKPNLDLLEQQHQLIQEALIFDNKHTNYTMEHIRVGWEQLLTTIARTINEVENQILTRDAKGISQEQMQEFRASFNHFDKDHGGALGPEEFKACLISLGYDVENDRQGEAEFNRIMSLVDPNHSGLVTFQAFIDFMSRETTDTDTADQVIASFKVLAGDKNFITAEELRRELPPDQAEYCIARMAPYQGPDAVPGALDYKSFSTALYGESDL

Target: T1, EpCAM (Epithelial Cell Adhesion Molecule) (human (endogenous in Caco2)) (UniProt P16422)
T1 sequence: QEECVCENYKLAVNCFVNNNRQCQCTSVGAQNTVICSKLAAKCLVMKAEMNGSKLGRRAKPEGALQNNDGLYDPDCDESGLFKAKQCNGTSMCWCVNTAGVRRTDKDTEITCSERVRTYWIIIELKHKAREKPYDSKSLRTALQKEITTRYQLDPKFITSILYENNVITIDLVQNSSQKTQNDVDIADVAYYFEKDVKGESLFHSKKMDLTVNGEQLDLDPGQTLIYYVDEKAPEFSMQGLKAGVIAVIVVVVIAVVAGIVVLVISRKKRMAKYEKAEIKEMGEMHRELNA
Experiment: co-IP

binding: no binding
Substance: α4-actinin (from UniProt O43707 1-911)
